Data as given in PubChem BioAssay AID652243 (Drosophila RNAi Screening Center, 2013)
Aim: 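Fly genes required for human androgen receptor driven transcription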 (primary screen). System: Drosophila S2R+ cells. Knock-down reagent: long dsRNA against Drosophila genes. Duration: 72 h (48 h, then 24 h hormone). Conditions: synthetic androgen R1881 at 10 nM for 24 h. Read-out: 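Per-well raw luminescence of the androgen-driven firefly reporter and of the Renilla control, two replicates each, without normalisation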. Reading the numbers: firefly reporter light: higher = more light from androgen-responsive reporter; Renilla control light: higher = more constitutive control signal (cell number, transfection). Active means: 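Across duplicate plates, a knock-down whose log firefly/Renilla ratio shifted a set fold down or up from the GFP/LacZ control mean was a hit; the downward cut appears as both 1.5 and 3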. Meaning of the calls: active = hit: reporter lowered or raised; inactive = no hit.
The screen tested about 24,000 reagents; this is a random part of those with a known target gene and a result. Over the whole deposit, 246 (1%) are marked active. 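Plates not normalised; calls are printed but the firefly/Renilla ratio behind them is not deposited; fold cut for lowering reported inconsistently.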 Raw values vary from plate to plate and are shown uncorrected. A plus sign joins genes that one reagent is predicted to hit. Not given: the amount of reagent.

predicted target | amplicon | firefly reporter light, replicate 1 | firefly reporter light, replicate 2 | Renilla control light, replicate 1 | Renilla control light, replicate 2 | Call
psq | DRSC23094 | 7.09e5 | 9.88e5 | 1.49e6 | 1.55e6 | inactive
psq | DRSC38444 | 8.87e5 | 8.98e5 | 1.92e6 | 1.78e6 | inactive
RhoGEF4 | DRSC11011 | 1.47e6 | 9.88e5 | 2.37e6 | 1.91e6 | inactive
RhoGEF4 | DRSC26016 | 4.32e5 | 3.32e5 | 9.35e5 | 6.38e5 | inactive
Xrp1 | DRSC15283 | 97244 | 65324 | 1.88e6 | 1.17e6 | inactive
Xrp1 | DRSC28718 | 2.56e5 | 2.44e5 | 8.82e5 | 6.71e5 | inactive
I-2 | DRSC11194 | 2.09e5 | 1.75e5 | 1.61e6 | 1.51e6 | inactive
I-2 | DRSC23300 | 7.84e5 | 7.63e5 | 2.31e6 | 1.76e6 | inactive
Amt | DRSC16055 | 2.41e5 | 1.54e5 | 2.78e6 | 2.27e6 | inactive
Amt | DRSC27970 | 4.38e5 | 3.90e5 | 2.43e6 | 1.38e6 | inactive
CG30054 | DRSC05354 | 1.71e5 | 1.54e5 | 5.02e5 | 3.06e5 | inactive
CG18180 | DRSC10304 | 6.35e5 | 1.75e5 | 8.11e5 | 3.82e5 | inactive
CG18180 | DRSC25404 | 8.23e5 | 5.66e5 | 1.59e6 | 1.55e6 | inactive
Prosalpha6T | DRSC02873 | 2.07e5 | 1.66e5 | 1.20e6 | 1.72e6 | inactive
RpS29 + snoRNA:Psi18S-1275 | DRSC16433 | 1.11e5 | 1.42e5 | 2.16e6 | 2.51e6 | inactive
wda | DRSC15579 | 4.94e5 | 4.69e5 | 2.82e6 | 2.92e6 | inactive
wda | DRSC22351 | 9.01e5 | 9.65e5 | 2.86e5 | 2.55e5 | inactive
CNMa | DRSC08405 | 1.07e5 | 60272 | 1.49e6 | 1.63e6 | inactive
alphaTub67C | DRSC11321 | 1.53e5 | 1.77e5 | 1.91e6 | 1.89e6 | inactive
alphaTub67C | DRSC25162 | 7.47e5 | 6.82e5 | 8.08e5 | 9.19e5 | inactive
Idh3b | DRSC16040 | 92448 | 72831 | 5.52e5 | 7.41e5 | inactive
Idh3b | DRSC28483 | 3.97e5 | 7.23e5 | 7.89e5 | 1.19e6 | inactive
CR18228 | DRSC15317 | 1.06e5 | 1.21e5 | 2.31e6 | 2.36e6 | inactive
mRpS11 | DRSC15732 | 3.31e5 | 2.58e5 | 2.63e6 | 2.44e6 | inactive
Cul4 | DRSC07243 | 2.53e5 | 4.92e5 | 9.34e5 | 1.03e6 | inactive
Cul4 | DRSC27185 | 2.21e5 | 2.11e5 | 4.37e5 | 5.36e5 | inactive
MED8 | DRSC06426 | 99044 | 1.52e5 | 1.04e6 | 1.40e6 | inactive
QIL1 | DRSC10888 | 3.36e5 | 1.70e5 | 1.97e6 | 1.19e6 | inactive
CG2104 | DRSC12304 | 42474 | 48438 | 1.43e6 | 1.25e6 | inactive
CG2104 | DRSC36916 | – | – | – | – | inactive
Irbp18 | DRSC10612 | 3.36e5 | 2.99e5 | 3.08e6 | 3.16e6 | inactive
CG9919 | DRSC20219 | 5.09e5 | 4.76e5 | 3.69e6 | 2.49e6 | inactive
CG32645 | DRSC19683 | 5.93e5 | 6.10e5 | 3.34e6 | 3.50e6 | inactive
CG32645 | DRSC19889 | 6.80e5 | 5.45e5 | 3.82e6 | 4.11e6 | inactive
CG13376 | DRSC17901 | 2.60e5 | 3.33e5 | 5.66e6 | 3.56e6 | inactive
CG14309 | DRSC14788 | 1.34e5 | 2.29e5 | 1.65e6 | 1.78e6 | inactive
Pld | DRSC04854 | 1.26e6 | 8.24e5 | 2.20e6 | 1.30e6 | inactive
Pld | DRSC24641 | 5.26e5 | 5.28e5 | 4.50e5 | 4.52e5 | inactive
Baldspot | DRSC09671 | 2.96e5 | 2.93e5 | 2.91e6 | 2.85e6 | inactive
CG10993 | DRSC19362 | 4.44e5 | 4.47e5 | 2.89e6 | 3.54e6 | inactive
CG7695 | DRSC16289 | 1.76e5 | 1.73e5 | 2.25e6 | 2.41e6 | inactive
CG10750 | DRSC02105 | 8.58e5 | 7.43e5 | 2.83e6 | 2.87e6 | inactive
CG10750 | DRSC29624 | 3.56e5 | 3.95e5 | 8.97e5 | 8.97e5 | inactive
yellow-e | DRSC12966 | 1.97e5 | 2.30e5 | 3.85e5 | 5.74e5 | inactive
yellow-e | DRSC16563 | 45676 | 76656 | 1.36e6 | 1.66e6 | inactive
Fs | DRSC06258 | 5.87e5 | 6.45e5 | 1.98e6 | 2.41e6 | active
Fs | DRSC06259 | 20041 | 19208 | 6.43e5 | 6.43e5 | active
Fs | DRSC23507 | 5.37e5 | 7.12e5 | 5.60e5 | 5.45e5 | inactive
ImpL1 | DRSC11197 | 7.28e5 | 7.42e5 | 2.03e6 | 2.58e6 | inactive
ImpL1 | DRSC28367 | 7.16e5 | 1.06e6 | 9.07e5 | 1.34e6 | inactive
icln | DRSC07630 | 61755 | 78978 | 8.30e5 | 8.30e5 | inactive
icln | DRSC26232 | 2.57e5 | 3.10e5 | 7.53e5 | 7.71e5 | inactive
cu | DRSC15643 | 2.07e5 | 1.58e5 | 3.16e6 | 2.38e6 | inactive
cu | DRSC15648 | 1.46e5 | 94774 | 1.71e6 | 1.97e6 | inactive
CG31673 | DRSC03207 | 7.19e5 | 7.96e5 | 2.77e6 | 2.04e6 | inactive
bt | DRSC17129 | 80479 | 66195 | 7.82e5 | 5.55e5 | inactive
bt | DRSC17171 | 1.46e5 | 84645 | 7.48e5 | 4.96e5 | inactive
bt | DRSC36656 | 8.62e5 | 9.23e5 | 2.11e6 | 1.81e6 | inactive
bt | DRSC36657 | – | – | – | – | inactive

2 of these entries, set out differently:
bt [DRSC36656] → firefly reporter light, replicate 1: 8.62e5; firefly reporter light, replicate 2: 9.23e5; Renilla control light, replicate 1: 2.11e6; Renilla control light, replicate 2: 1.81e6; Call: inactive
bt [DRSC36657] → Call: inactive
